Data as given in PubChem BioAssay AID602196 (INSERM, 2012)
Here is a random part of about 23,000 deposited reagents. Over the whole deposit, 455 (2%) are marked active. 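Active includes both protection and sensitisation; some change values fall well beyond the stated -50 to +50 range.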 Entries without a mark were called inactive. Not all columns of the deposit are shown. Not given: the amount of reagent.

Screen: 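Modifiers of cisplatin sensitivity in A549 cells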
System: human A549 lung cancer cells
Reagents: siRNA pair against human genes
Timing: 48 h transfection before cisplatin; time from cisplatin to read-out not stated
Treatment: cisplatin at a dose killing half of control-siRNA cells; exact dose and duration not given
Measured: 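Shift in cisplatin death relative to control siRNA, from -50 (all cells die) to +50 (no cells die); siRNAs harmful on their own scored 0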
Scale: two-siRNA summed score (-2 to +2): higher = both siRNAs protect from cisplatin killing; -2 means both sensitise; mean protection from cisplatin (shift in death): higher = protection from cisplatin killing
Call rule: 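siRNAs harmful alone (LDH or WST-1) get 0; others get +1 for less and -1 for more cisplatin killing; genes are active when the two siRNAs give the same sign, summing to ±2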
Meaning of the calls: active = both siRNAs shift cisplatin killing the same way; inactive = no consistent shift, or siRNA harmful alone

The first 3 records as a preview:
{"gene": "LCE1E", "two-siRNA summed score (-2 to +2)": 0, "mean protection from cisplatin (shift in death) (%)": 13.4}
{"gene": "LINC00545", "two-siRNA summed score (-2 to +2)": 1, "mean protection from cisplatin (shift in death) (%)": 19.1}
{"gene": "PLCB4", "two-siRNA summed score (-2 to +2)": 0, "mean protection from cisplatin (shift in death) (%)": 9.3}

The list itself, repeating the preview:
{"gene": "LCE1E", "two-siRNA summed score (-2 to +2)": 0, "mean protection from cisplatin (shift in death) (%)": 13.4}
{"gene": "LINC00545", "two-siRNA summed score (-2 to +2)": 1, "mean protection from cisplatin (shift in death) (%)": 19.1}
{"gene": "PLCB4", "two-siRNA summed score (-2 to +2)": 0, "mean protection from cisplatin (shift in death) (%)": 9.3}
{"gene": "GNG12", "two-siRNA summed score (-2 to +2)": 0, "mean protection from cisplatin (shift in death) (%)": -7.3}
{"gene": "LOC283152", "two-siRNA summed score (-2 to +2)": 0, "mean protection from cisplatin (shift in death) (%)": 9.6}
{"gene": "LOC442091", "two-siRNA summed score (-2 to +2)": 1, "mean protection from cisplatin (shift in death) (%)": 16.5}
{"gene": "KIAA0962", "two-siRNA summed score (-2 to +2)": 0, "mean protection from cisplatin (shift in death) (%)": -5.6}
{"gene": "CCDC121", "two-siRNA summed score (-2 to +2)": 0, "mean protection from cisplatin (shift in death) (%)": -6}
{"gene": "PBX2", "two-siRNA summed score (-2 to +2)": 1, "mean protection from cisplatin (shift in death) (%)": 11.4}
{"gene": "IMMT", "two-siRNA summed score (-2 to +2)": 0, "mean protection from cisplatin (shift in death) (%)": 3.1}
{"gene": "SNX22", "two-siRNA summed score (-2 to +2)": -1, "mean protection from cisplatin (shift in death) (%)": -14.7}
{"gene": "STS", "two-siRNA summed score (-2 to +2)": 0, "mean protection from cisplatin (shift in death) (%)": 15}
{"gene": "TRIML1", "two-siRNA summed score (-2 to +2)": 1, "mean protection from cisplatin (shift in death) (%)": 12.8}
{"gene": "BCL2L13", "two-siRNA summed score (-2 to +2)": 0, "mean protection from cisplatin (shift in death) (%)": 13.4}
{"gene": "PACS1", "two-siRNA summed score (-2 to +2)": 0, "mean protection from cisplatin (shift in death) (%)": 34.8}
{"gene": "MSANTD2", "two-siRNA summed score (-2 to +2)": 0, "mean protection from cisplatin (shift in death) (%)": 12.1}
{"gene": "LINC01366", "two-siRNA summed score (-2 to +2)": 0, "mean protection from cisplatin (shift in death) (%)": 7.7}
{"gene": "LOC401101", "two-siRNA summed score (-2 to +2)": 0, "mean protection from cisplatin (shift in death) (%)": -2.1}
{"gene": "KRTAP5-1", "two-siRNA summed score (-2 to +2)": 0, "mean protection from cisplatin (shift in death) (%)": 6.4}
{"gene": "CSGALNACT2", "two-siRNA summed score (-2 to +2)": 0, "mean protection from cisplatin (shift in death) (%)": 1.8}
{"gene": "KLK5", "two-siRNA summed score (-2 to +2)": 0, "mean protection from cisplatin (shift in death) (%)": 15.4}
{"gene": "GAB3", "two-siRNA summed score (-2 to +2)": 0, "mean protection from cisplatin (shift in death) (%)": 6.4}
{"gene": "PTGES3", "two-siRNA summed score (-2 to +2)": 0, "mean protection from cisplatin (shift in death) (%)": -2.3}
{"gene": "SMG1", "two-siRNA summed score (-2 to +2)": -1, "mean protection from cisplatin (shift in death) (%)": -6.3}
{"gene": "LOC388545", "two-siRNA summed score (-2 to +2)": 0, "mean protection from cisplatin (shift in death) (%)": 4.3}
{"gene": "COXFA4", "two-siRNA summed score (-2 to +2)": 0, "mean protection from cisplatin (shift in death) (%)": -6}
{"gene": "OR4X1", "two-siRNA summed score (-2 to +2)": 1, "mean protection from cisplatin (shift in death) (%)": -0.5}
{"gene": "MLLT6", "two-siRNA summed score (-2 to +2)": 0, "mean protection from cisplatin (shift in death) (%)": 0.5}
{"gene": "RFC4", "two-siRNA summed score (-2 to +2)": 0, "mean protection from cisplatin (shift in death) (%)": 7.3}
{"gene": "MLKL", "two-siRNA summed score (-2 to +2)": 0, "mean protection from cisplatin (shift in death) (%)": 25.4}
{"gene": "CAPS2", "two-siRNA summed score (-2 to +2)": 0, "mean protection from cisplatin (shift in death) (%)": 4.6}
